Laboratory results as given in PMC4167695, “Activation of c-Myc and Cyclin D1 by JCV T-Antigen and β-Catenin in Colon Cancer” (PLoS ONE, 2014).
No constants are given. Whether binding was seen depends on the method and setting. In cells and extracts the contact can be indirect. Some binding calls cover weakened binding; strength is not graded here.

Chains of the proteins cited; added tags and fusions are not shown.
UniProt P35222: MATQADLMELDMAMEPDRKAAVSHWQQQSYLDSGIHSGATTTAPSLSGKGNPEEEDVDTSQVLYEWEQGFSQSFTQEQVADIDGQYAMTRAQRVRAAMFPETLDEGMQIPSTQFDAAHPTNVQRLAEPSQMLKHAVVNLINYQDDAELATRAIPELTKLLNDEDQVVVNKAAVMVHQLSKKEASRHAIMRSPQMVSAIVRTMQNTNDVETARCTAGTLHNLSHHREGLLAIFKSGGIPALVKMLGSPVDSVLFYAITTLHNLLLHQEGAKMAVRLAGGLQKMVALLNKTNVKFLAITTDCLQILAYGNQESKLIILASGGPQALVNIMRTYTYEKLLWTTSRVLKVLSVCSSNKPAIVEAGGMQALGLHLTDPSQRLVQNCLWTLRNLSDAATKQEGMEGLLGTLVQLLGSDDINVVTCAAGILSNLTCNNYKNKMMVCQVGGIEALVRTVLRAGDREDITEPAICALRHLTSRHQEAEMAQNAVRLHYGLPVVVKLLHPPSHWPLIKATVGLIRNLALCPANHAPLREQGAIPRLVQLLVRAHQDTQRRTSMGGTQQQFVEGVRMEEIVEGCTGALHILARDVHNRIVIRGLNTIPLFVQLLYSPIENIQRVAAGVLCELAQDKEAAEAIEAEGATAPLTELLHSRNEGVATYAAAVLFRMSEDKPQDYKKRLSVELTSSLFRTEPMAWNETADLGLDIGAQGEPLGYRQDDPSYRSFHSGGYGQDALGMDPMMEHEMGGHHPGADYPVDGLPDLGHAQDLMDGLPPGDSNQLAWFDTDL

Legend:
JCV T-Antigen (JC virus) = molecular target: T1, JCV T-Antigen (JC virus) (UniProt P03072); assay: co-IP; 500 µg nuclear or cytoplasmic extract of HCT116 cells transfected with T-Antigen or empty vector; IP with 10 µg anti-T-Antigen antibody overnight at 4°C, Protein A/G magnetic beads, washed in HNTG buffer (20 mM HEPES, 150 mM NaCl, 10% glycerol, 0.1% Triton X-100); Western blot for β-catenin
T1 sequence: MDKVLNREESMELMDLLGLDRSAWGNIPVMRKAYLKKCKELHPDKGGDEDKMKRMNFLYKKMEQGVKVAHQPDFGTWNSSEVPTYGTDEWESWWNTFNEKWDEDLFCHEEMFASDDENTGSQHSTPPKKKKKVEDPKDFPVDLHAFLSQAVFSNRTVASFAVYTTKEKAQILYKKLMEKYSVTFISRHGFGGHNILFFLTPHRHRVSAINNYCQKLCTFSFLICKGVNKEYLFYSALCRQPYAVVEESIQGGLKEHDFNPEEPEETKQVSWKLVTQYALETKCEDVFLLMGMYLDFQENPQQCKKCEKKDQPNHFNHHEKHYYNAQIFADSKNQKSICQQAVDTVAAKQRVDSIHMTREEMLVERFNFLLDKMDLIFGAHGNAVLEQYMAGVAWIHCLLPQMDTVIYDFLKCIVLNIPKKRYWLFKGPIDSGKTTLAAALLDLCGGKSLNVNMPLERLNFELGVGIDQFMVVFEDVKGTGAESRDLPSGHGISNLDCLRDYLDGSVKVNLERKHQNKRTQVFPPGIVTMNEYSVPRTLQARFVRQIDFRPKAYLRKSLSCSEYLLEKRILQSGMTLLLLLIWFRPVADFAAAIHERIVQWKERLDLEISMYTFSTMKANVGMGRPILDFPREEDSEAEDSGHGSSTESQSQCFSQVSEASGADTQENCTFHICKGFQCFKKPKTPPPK

[1] = molecular target: β-catenin (human (endogenous in HCT116)) (UniProt P35222); assay: co-IP; 500 µg nuclear or cytoplasmic extract of HCT116 cells transfected with T-Antigen or empty vector; IP with 10 µg anti-β-catenin antibody overnight at 4°C, Protein A/G magnetic beads, washed in HNTG buffer (20 mM HEPES, 150 mM NaCl, 10% glycerol, 0.1% Triton X-100); Western blot for T-Antigen

β-catenin (from UniProt P35222 1-781)
binding (JCV T-Antigen (JC virus)): binds

B1: JCV T-Antigen (natural protein)
chain: T1 sequence
binding [1]: binds
